Reference: patent publication US6403602B1 (priority 1997, dated 2002)
The structures given here were assigned with low confidence; some may be wrong. This is a selection: effects in other tests are not listed, and their absence says nothing.

Protein sequences, listed by entry. Tags and fused reporters are not part of them. Residues count along the entry.
UniProt A0ACM8Q262, 1-400: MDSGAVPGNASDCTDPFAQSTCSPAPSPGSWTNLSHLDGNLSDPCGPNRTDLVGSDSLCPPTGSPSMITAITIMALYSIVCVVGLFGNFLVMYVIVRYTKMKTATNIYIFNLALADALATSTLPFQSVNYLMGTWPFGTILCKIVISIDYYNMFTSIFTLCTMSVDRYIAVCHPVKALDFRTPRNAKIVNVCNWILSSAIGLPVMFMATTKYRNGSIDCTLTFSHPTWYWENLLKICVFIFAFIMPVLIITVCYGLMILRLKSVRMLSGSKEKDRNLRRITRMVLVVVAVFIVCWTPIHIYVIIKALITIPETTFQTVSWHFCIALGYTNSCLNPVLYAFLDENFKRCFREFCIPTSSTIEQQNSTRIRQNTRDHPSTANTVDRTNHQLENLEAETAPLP
UniProt P41144, whole entry: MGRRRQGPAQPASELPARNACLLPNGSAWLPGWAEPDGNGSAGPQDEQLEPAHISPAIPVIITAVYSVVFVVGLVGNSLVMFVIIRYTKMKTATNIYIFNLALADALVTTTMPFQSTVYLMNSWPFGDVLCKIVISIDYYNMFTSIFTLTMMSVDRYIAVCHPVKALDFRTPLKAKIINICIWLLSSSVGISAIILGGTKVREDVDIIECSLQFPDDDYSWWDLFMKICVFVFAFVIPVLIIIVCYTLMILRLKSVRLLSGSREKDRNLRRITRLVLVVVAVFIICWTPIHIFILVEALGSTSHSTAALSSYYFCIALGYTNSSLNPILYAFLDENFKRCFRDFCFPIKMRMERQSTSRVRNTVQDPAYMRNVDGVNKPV
UniProt A0A286XTF2, 1-366: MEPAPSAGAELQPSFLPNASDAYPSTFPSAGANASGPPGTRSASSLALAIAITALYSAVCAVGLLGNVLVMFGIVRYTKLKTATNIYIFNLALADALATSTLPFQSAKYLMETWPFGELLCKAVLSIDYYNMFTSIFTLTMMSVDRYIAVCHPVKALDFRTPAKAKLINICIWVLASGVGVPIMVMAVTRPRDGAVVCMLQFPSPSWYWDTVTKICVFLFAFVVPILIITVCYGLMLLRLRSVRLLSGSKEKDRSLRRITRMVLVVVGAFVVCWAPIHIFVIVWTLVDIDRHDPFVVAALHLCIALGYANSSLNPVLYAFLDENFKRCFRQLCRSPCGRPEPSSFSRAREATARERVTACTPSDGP

Columns and labels:
mu opioid receptors = mu opioid receptors (Cavia porcellus, UniProt A0ACM8Q262); assay: Inhibition of [^3H]DAMGO binding to μ-sites of guinea-pig brain homogenates; settings: read-out: Ki μ [^3H]DAMGO
kappa1 sites = kappa1 sites (Cavia porcellus, UniProt P41144); assay: Inhibition of [^3H]U69,593 binding to κ1 sites of guinea-pig brain homogenates; settings: read-out: Ki κ1 [^3H]U69,593
κ2 sites = assay: Inhibition of binding to κ2 sites of guinea-pig brain homogenates; settings: read-out: κ2 IC50
kappa3 receptors = assay: Inhibition of [^3H]NalBzoH binding to κ3 sites of guinea-pig brain homogenates; settings: read-out: Ki κ3 [^3H]NalBzoH
delta receptors = delta receptors (Cavia porcellus, UniProt A0A286XTF2); settings: read-out: Ki δ [^3H]Cl-DPDPE; guinea-pig brain homogenates

SMILES: CN(C(=O)Cc1cc(Cl)c(Cl)cc1N=C=S)C1CCCC[C@@H]1N1CCCC1 (some centres unmarked)
- Ki (mu opioid receptors): 1950 nM
- Ki (kappa1 sites): 10.7 nM
- IC50 (κ2 sites): 319 nM
- Ki (kappa3 receptors): 2520 nM
- Ki (delta receptors): > 10000 nM
